Laboratory results reported in paper PMC7244589.

Key:
GST-hnRNP F = GST-hnRNP F (UniProt P52597); experiment: EMSA; conditions: RNA EMSA: LightShift REMSA kit, 1.5 nM biotin RNA, 30 min room temperature, 4% native PAGE; recombinant protein; protein details: GST; label: biotin; probe letters rebuilt from the primers and the genome; part of a longer molecule
GST-hnRNP H1 = GST-hnRNP H1 (UniProt P31943); experiment: EMSA; conditions: RNA EMSA: LightShift REMSA kit, 1.5 nM biotin RNA, 30 min room temperature, 4% native PAGE; recombinant protein; protein details: GST; label: biotin; probe letters rebuilt from the primers and the genome; part of a longer molecule
GST-hnRNP H2 = GST-hnRNP H2 (UniProt P55795); experiment: EMSA; conditions: RNA EMSA: LightShift REMSA kit, 1.5 nM biotin RNA, 30 min room temperature, 4% native PAGE; recombinant protein; protein details: GST; label: biotin; probe letters rebuilt from the primers and the genome; part of a longer molecule
FLAG-hnRNP H1 = target: T1, FLAG-hnRNP H1 (UniProt P31943); experiment: pull-down; conditions: pull-down: HeLa whole cell extract, streptavidin beads, salt and pH not given, protein in a lysate after overexpression, protein details: FLAG, letters put together from the description
T1 sequence (looked up, limits assumed): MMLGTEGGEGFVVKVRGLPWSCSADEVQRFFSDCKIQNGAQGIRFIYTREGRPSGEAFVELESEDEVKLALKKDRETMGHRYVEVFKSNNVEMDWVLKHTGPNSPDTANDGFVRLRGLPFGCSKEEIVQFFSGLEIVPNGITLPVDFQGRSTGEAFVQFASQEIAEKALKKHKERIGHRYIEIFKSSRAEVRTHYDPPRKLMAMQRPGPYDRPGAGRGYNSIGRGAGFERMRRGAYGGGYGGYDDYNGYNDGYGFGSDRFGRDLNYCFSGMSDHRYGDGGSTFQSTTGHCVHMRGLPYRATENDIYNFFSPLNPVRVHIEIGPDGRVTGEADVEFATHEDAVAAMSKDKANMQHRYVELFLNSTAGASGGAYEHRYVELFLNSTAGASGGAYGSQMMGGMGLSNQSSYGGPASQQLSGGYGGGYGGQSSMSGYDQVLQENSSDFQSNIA

FLAG-hnRNP F = target: T2, FLAG-hnRNP F (UniProt P52597); experiment: pull-down; conditions: pull-down: HeLa whole cell extract, streptavidin beads, salt and pH not given, protein in a lysate after overexpression, protein details: FLAG, letters put together from the description
T2 sequence (looked up, limits assumed): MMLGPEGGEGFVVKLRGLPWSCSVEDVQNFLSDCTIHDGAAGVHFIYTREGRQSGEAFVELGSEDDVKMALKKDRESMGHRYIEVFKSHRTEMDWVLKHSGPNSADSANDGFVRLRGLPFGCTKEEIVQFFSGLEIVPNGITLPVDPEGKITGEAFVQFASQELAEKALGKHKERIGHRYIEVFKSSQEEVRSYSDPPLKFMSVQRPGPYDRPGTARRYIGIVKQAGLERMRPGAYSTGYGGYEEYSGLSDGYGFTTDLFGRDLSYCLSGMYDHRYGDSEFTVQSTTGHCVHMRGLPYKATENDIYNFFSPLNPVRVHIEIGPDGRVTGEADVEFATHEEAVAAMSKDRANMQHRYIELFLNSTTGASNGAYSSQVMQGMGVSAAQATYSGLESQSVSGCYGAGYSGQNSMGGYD

FLAG-hnRNP H2 = target: T3, FLAG-hnRNP H2 (UniProt P55795); experiment: pull-down; conditions: pull-down: HeLa whole cell extract, streptavidin beads, salt and pH not given, protein in a lysate after overexpression, protein details: FLAG, letters put together from the description
T3 sequence (looked up, limits assumed): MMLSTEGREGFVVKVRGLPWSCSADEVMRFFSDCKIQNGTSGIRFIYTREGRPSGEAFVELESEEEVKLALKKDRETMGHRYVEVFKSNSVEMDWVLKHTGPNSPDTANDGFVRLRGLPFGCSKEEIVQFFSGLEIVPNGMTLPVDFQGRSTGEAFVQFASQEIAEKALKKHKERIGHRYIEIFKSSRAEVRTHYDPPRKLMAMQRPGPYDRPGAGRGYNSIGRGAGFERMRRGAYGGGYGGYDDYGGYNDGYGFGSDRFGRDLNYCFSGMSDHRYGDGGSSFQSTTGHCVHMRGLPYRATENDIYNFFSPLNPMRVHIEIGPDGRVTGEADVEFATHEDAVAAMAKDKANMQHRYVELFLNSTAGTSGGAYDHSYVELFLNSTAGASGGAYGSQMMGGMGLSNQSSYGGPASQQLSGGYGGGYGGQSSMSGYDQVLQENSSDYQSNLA

[1] = almost completely lost, label: 3' biotin

| Sequence | binding result (FLAG-hnRNP H1; [1]) | binding result (FLAG-hnRNP F; [1]) | binding result (FLAG-hnRNP H2; [1]) | binding result (FLAG-hnRNP H1; label: 3' …) | binding result (FLAG-hnRNP F; label: 3' …) | binding result (FLAG-hnRNP H2; label: 3' …) | also measured |
| --- | --- | --- | --- | --- | --- | --- | --- |
| GUUGCGGAGGGUGGGCCUGGGAGGGGUGGUGGCCAUUUUUUGUCUAACCCUAACUGAGAAGGGCGUAGGCGCCGUGCUUUUGCUCCCCGCGCGCUGUUUUUCUCGCUGACUUUCAGCGGGCGGAAAAGCCUCGGCCUGCCGCCUUCCACCGUUCAUUCUAGAGCAAACAAAAAAUGUCAGCUGCUGGCCCGUUCGCCCCUCCCGGGGACCUGCGGCGGGUCGCCUGCCCAGCCCCCGAACCCCGCCUGGAGGCCGCGGUCGGCCCGGGGCUUCUCCGGAGGCACCCACUGCCACCGCGAAGAGUUGGGCUCUGUCAGCCGCGGGUCUCUCGGGGGCGAGGGCGAGGUUCAGGCCUUUCAGGCCGCAGGAAGAGGAACGGAGCGAGUCCCCGCGCGCGGCGCGAUUCCCUGAGCUGUGGGACGUGCACCCAGGACUCGGCUCACACAUGC [M1] | – | – | – | – | – | – | binding result (GST-hnRNP F): binds more weakly; binding result (GST-hnRNP H1): binds more weakly; binding result (GST-hnRNP H2): binds more weakly |
| GGGUUGCGGA [F30 1-10] | no binding | no binding | no binding | – | – | – | – |
| GGGUUGCGGAGGGUGGGCCUGGGA [F30 1-24] | – | – | – | binds | binds | binds | – |
| GGGUUGCGGAGGGU [F30 1-14] | no binding | no binding | no binding | – | – | – | – |
| GGGUUGCGGAGGGUGGGC [F30 1-18] | – | – | – | binds more weakly | binds more weakly | binds more weakly | – |

Construct, isoform or probe ends are uncertain for at least one entry. A weaker result is weaker than the reference pair of the same experiment. For part of these data: Where cells or extracts were used, other partners may take part. For part of these data: No signal at the amounts used counts as a negative. For part of these data: Tags and fusion partners may be left off the protein sequences shown.
